Results of single-concentration screens

From ChEMBL document CHEMBL3988442, “University of Dundee, Small-Polar-MMV Screening Library” (2021).

Mtb cholesterol medium: 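Growth of Mycobacterium tuberculosis over 4 days (cholesterol / DPPC medium with tyloxapol); the read-out is not stated. Tested at 50 µM. The record gives no direction; compounds that gave an IC50 in retests scored well above the rest, so higher reads as more growth inhibition. Of about 69,000 compounds tested this way, about 370 (0.54%) reached 50% or more in at least one test.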
Mtb glucose medium: 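Growth of Mycobacterium tuberculosis over 3 days (7H9 medium with glucose and tyloxapol); the read-out is not stated. Concentration: 50 µM. The record gives no direction; compounds that gave an IC50 in retests scored well above the rest, so higher reads as more growth inhibition. Of about 69,000 compounds tested this way, about 760 (1.1%) reached 50% or more in at least one test.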

The filed quantity is “Percent Effect” (%). The record does not define 0% and 100%; most values in the screen are far below 50% and negative numbers occur (in some assays of this library far below -100). The compounds are a random part of those screened. Two or more numbers in one place are separate tests of the same structure; such repeats can differ widely.

With NC(=O)c1c(SCCN2CCOCC2)sc2c(O)cc(=O)[nH]c12 the screen gave Mtb cholesterol medium: 8.281%; Mtb glucose medium: 11.89%. O=c1cc(Cn2ccnc2)nc2n1CCCN(Cc1ccncc1)C2 gave Mtb cholesterol medium: -22.04%; Mtb glucose medium: -16.19%. With Cc1ccccc1-n1cc(-c2ccnc(N3CCCC(CN)C3)n2)cn1 (configuration not stated) the screen gave Mtb cholesterol medium: 11.5%; Mtb glucose medium: 0.06471% & 2.468%. Cc1ccccc1N1CCCN(C(=O)CN2C(=O)OC[C@@H]2C(C)C)CC1 gave Mtb cholesterol medium: -23.2%; Mtb glucose medium: -30.05% & -6.062%. With CC(=O)c1cccc(NC(=O)Cn2cc(I)cn2)c1 the screen gave Mtb cholesterol medium: -0.1845%; Mtb glucose medium: -6.118% & 37.47%. Result for CC(C)c1ccc(CN[C@@H]2COC[C@H]2c2ccc(F)cc2)cc1 was Mtb cholesterol medium: 19.31%; Mtb glucose medium: 23.68%. Result for CC(C)c1n[nH]c(C2CN(C(=O)c3ncoc3C(C)C)CCO2)n1 (configuration not stated) was Mtb cholesterol medium: -0.8083%; Mtb glucose medium: 15.5%.

Result for O=C(C1CCCC1)N1CCC2(CC1)COCCN2CC1CC1.O=C(O)C(F)(F)F was Mtb cholesterol medium: -6.527%; Mtb glucose medium: -16.39%. With CC(C)C(O)CNC(=O)Nc1ccc(F)c(Cl)c1 (configuration not stated) the screen gave Mtb cholesterol medium: -1.544%; Mtb glucose medium: 13.16% & 5.814%. CN(CCO)CC1COCCN1C(=O)C1CCCCC1.O=CO (configuration not stated) gave Mtb cholesterol medium: 10.66%; Mtb glucose medium: 22.09%. CN(C)C1(CNC(=O)C2CCCN2Cc2ccc(F)cc2)CCOCC1 (configuration not stated) read Mtb cholesterol medium: -15.02%; Mtb glucose medium: -7.367%. Cc1cc(F)c(S(=O)(=O)NCC(C)(C)N)cc1F.Cl gave Mtb cholesterol medium: 13.24%; Mtb glucose medium: 19.01%. CC(C)(N)CNS(=O)(=O)Cc1cccc2cccnc12.Cl gave Mtb cholesterol medium: -3.197%; Mtb glucose medium: -10.9%. CC(=O)NC1CCc2ccc(S(=O)(=O)NCc3ncccc3C)cc21 (configuration not stated) gave Mtb cholesterol medium: -44.99%; Mtb glucose medium: 21.26%.

For CC(C#N)CNS(=O)(=O)c1ccc(F)c(Br)c1 (configuration not stated) the result was Mtb cholesterol medium: -0.3188%; Mtb glucose medium: -7.497%. Result for CN(C)C(CNCc1nc(-c2ccsc2)no1)c1cccs1 (configuration not stated) was Mtb cholesterol medium: 14.98%; Mtb glucose medium: 11.51%. Result for O=C(NCC1CC1)C1CCC2(CCN(C(=O)c3cnccn3)CC2)O1 (configuration not stated) was Mtb cholesterol medium: -9.56% & -20.93%; Mtb glucose medium: -12.15%. CCSCCOC(=O)CCCc1ccc2c(c1)CC(=O)N2 gave Mtb cholesterol medium: 2.777%; Mtb glucose medium: 2.227%. With COc1ccccc1C(O)CNc1nccc(-c2ccc(C)nc2C)n1 (configuration not stated) the screen gave Mtb cholesterol medium: 9.665%; Mtb glucose medium: 11.09% & 13.96%. Cn1ccc(C(=O)N2CCC(Cc3ccc4ncccc4c3)CC2)n1 gave Mtb cholesterol medium: -35.7% & -2.035%; Mtb glucose medium: -6.581%. Cc1cccc(COc2ccc(C(C)N)cc2)c1.Cl (configuration not stated) gave Mtb cholesterol medium: 38.31%; Mtb glucose medium: 34.46%.

With CC(C)(O)CNC(=O)NCc1nccn1CCc1ccccc1 the screen gave Mtb cholesterol medium: 15.46%; Mtb glucose medium: 22.46%. Result for O=C(O)C(F)(F)F.[H][C@@]12CN(Cc3nccs3)CCC[C@]1(C(=O)OCC)CN(C(C)=O)C2 was Mtb cholesterol medium: -4.048%; Mtb glucose medium: 5.467%. Result for [H][C@]12CCN(C(=O)c3cnc(C)cn3)C[C@@]1([H])OCCN(c1ncccn1)C2 was Mtb cholesterol medium: -23.62% & 17.9%; Mtb glucose medium: -32.37%. COc1cccc(Cn2cc(C3=CCN(CCO)CC3)cn2)c1 gave Mtb cholesterol medium: 11.18%; Mtb glucose medium: -1.947% & 5.648%. For [H][C@@]12OCCN(C(=O)C3=CCCC3)[C@@]1([H])CC[C@H]2OC the result was Mtb cholesterol medium: 10.62%; Mtb glucose medium: 18.64%. With [H][C@@]12CS(=O)(=O)C[C@]1([H])N(C(=O)c1ccco1)CCN2S(C)(=O)=O the screen gave Mtb cholesterol medium: -22.88%; Mtb glucose medium: -14.21%. With COCCN(Cc1ccc(F)cc1Cl)C(=O)c1ccccn1 the screen gave Mtb cholesterol medium: -12.15%; Mtb glucose medium: 3.603% & 29.53%.

COc1cccc(CN(C)C(=O)c2csc(-c3nnc[nH]3)n2)c1 read Mtb cholesterol medium: -6.483% & -5.001%; Mtb glucose medium: -3.145%. For CCNC(=O)CC1CC2(CCN(C(C)=O)CC2)c2cc(F)ccc21 (configuration not stated) the result was Mtb cholesterol medium: -1.908%; Mtb glucose medium: 2.024% & -4.428%. With c1cc(CNc2ncc(-c3cnccn3)c([C@@H]3CCCO3)n2)ccn1 the screen gave Mtb cholesterol medium: 4.621%; Mtb glucose medium: 4.56%. With CN1CCN(CCC(F)(F)C(F)F)CC12CCNC(=O)CC2 (configuration not stated) the screen gave Mtb cholesterol medium: -12.89%; Mtb glucose medium: -19.8%. Cc1nc(C)n(C2CCCN(C(=O)CCc3cn(C)nc3C)C2)n1 (configuration not stated) read Mtb cholesterol medium: -1.74%; Mtb glucose medium: -9.165%. With Cc1ccc2c(c1)OCCCC2NCc1nccn1CC(C)C (configuration not stated) the screen gave Mtb cholesterol medium: 11.13%; Mtb glucose medium: 3.392%. COc1nccnc1N1CCC2(CC1)C(=O)N(C)c1ccccc12 read Mtb cholesterol medium: 0.04994%; Mtb glucose medium: 35.12%.

Result for O=C(NCCCN1CCCC1=O)c1nc(-c2ccc3[nH]ccc3c2)no1 was Mtb cholesterol medium: 6.618%; Mtb glucose medium: 31.62%. Result for c1cncc(Cc2nnc3n2CCN(CC2CCCNC2)CC3)c1 (configuration not stated) was Mtb cholesterol medium: -7.934%; Mtb glucose medium: 7.569%. Result for CCOc1ncccc1NC(=O)NC1CCCN(S(C)(=O)=O)C1 (configuration not stated) was Mtb cholesterol medium: -4.188%; Mtb glucose medium: -0.3651%. With COCc1nnc(-c2cccc(C(=O)N(C(C)C)C3CCC3)c2)o1 the screen gave Mtb cholesterol medium: 17%; Mtb glucose medium: 6.531% & -4.307%. With CC(C)C[C@@H](C(N)=O)n1cc(-c2cncnc2)nn1 the screen gave Mtb cholesterol medium: 10.89%; Mtb glucose medium: 7.068%. For [H][C@]12CC[C@]([H])(CN(S(=O)(=O)N(C)C)C1)N(C/C=C/c1ccc(OC)cc1)C2 the result was Mtb cholesterol medium: -8.777%; Mtb glucose medium: -1.072%. Result for CC(C)c1ccc(C(=O)O)cc1S(=O)(=O)Nc1ccc(=O)n(C)c1 was Mtb cholesterol medium: -12.64%; Mtb glucose medium: 20.5%.

O=C(O)C(F)(F)F.O=C(O)C(F)(F)F.c1ccc(CO[C@H]2CO[C@@]3(CCN(Cc4ccoc4)C3)C2)nc1 read Mtb cholesterol medium: 1.357%; Mtb glucose medium: -0.547%. Cc1noc(C)c1-c1cc(CCC2CN(CCC(N)=O)CCO2)ncn1 (configuration not stated) gave Mtb cholesterol medium: -8.303% & -5.706%; Mtb glucose medium: -10.54%. For O=C(CN1CCOC1=O)N(Cc1ccccc1)Cc1nccs1 the result was Mtb cholesterol medium: -18.45%; Mtb glucose medium: -25.5% & -6.864%. O=C(O)C(F)(F)F.O=C(O)c1c(-c2ccoc2)ncc2c1CCN(C1CCOC1)C2 (configuration not stated) gave Mtb cholesterol medium: -6.496%; Mtb glucose medium: -0.78% & -23.83%. With N#Cc1ccsc1NC(=O)CN1CCOC(Cn2cccn2)C1 (configuration not stated) the screen gave Mtb cholesterol medium: -15.03%; Mtb glucose medium: -8.75%.

Repeated from the top, 5 entries:

For NC(=O)c1c(SCCN2CCOCC2)sc2c(O)cc(=O)[nH]c12 the result was Mtb cholesterol medium: 8.281%; Mtb glucose medium: 11.89%.
For O=c1cc(Cn2ccnc2)nc2n1CCCN(Cc1ccncc1)C2 the result was Mtb cholesterol medium: -22.04%; Mtb glucose medium: -16.19%.
For Cc1ccccc1-n1cc(-c2ccnc(N3CCCC(CN)C3)n2)cn1 (configuration not stated) the result was Mtb cholesterol medium: 11.5%; Mtb glucose medium: 0.06471% & 2.468%.
For Cc1ccccc1N1CCCN(C(=O)CN2C(=O)OC[C@@H]2C(C)C)CC1 the result was Mtb cholesterol medium: -23.2%; Mtb glucose medium: -30.05% & -6.062%.
For CC(=O)c1cccc(NC(=O)Cn2cc(I)cn2)c1 the result was Mtb cholesterol medium: -0.1845%; Mtb glucose medium: -6.118% & 37.47%.